# Source: PubChem BioAssay (EPA / NIEHS)
# By UniProt entry, the sequences of proteins in these tests, tags left out. Where a name states a change or a piece, a line headed by the entry shows the natural chain unless it says otherwise.
# UniProt Q9UNQ0: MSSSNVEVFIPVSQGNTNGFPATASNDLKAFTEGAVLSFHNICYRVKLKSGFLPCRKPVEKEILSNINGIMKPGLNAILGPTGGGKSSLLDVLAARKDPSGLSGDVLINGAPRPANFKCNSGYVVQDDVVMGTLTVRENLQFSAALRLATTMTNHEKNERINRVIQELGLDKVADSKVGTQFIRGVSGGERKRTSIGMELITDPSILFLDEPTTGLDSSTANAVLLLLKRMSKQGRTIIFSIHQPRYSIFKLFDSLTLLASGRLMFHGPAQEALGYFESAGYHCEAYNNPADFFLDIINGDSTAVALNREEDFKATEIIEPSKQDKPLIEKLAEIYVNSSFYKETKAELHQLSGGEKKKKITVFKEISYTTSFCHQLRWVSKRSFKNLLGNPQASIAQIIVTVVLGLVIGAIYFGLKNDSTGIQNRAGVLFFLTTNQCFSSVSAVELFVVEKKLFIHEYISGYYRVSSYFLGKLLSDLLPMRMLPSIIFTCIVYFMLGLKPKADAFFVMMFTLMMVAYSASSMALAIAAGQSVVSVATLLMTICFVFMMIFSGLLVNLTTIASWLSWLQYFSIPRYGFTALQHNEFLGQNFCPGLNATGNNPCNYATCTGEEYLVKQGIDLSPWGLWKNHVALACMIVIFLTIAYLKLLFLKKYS
# Inconclusive results, whose numbers are uncertain, are shown with a selection of clear calls. A potency beside an inconclusive call is a rough fit, not a confirmed value. Activity calls are given as the source filed them. The calls were made as follows: active = hit-call score of the fitted dose curve at least 0.9, where 1 is the maximum; inconclusive = response in the unintended direction; inactive = score below 0.9.
# Assays:
# [1] = Tanguay_ZF_120hpf_JAW_legacy: (Legacy) Oregon State University Tanguay Lab 120 Hour Post-fertilization zebrafish Assay for Jaw Malformation (AID 2283638);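 as to AC50: active means more embryos with jaw malformation than DMSO controls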
# Summary of the method: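 Static waterborne exposure of dechorionated wild-type (Tropical 5D) zebrafish from 6 to 120 hpf at 28C, 0.64% DMSO vehicle; 5uM trimethyltin chloride served as positive control. Jaw morphology recorded as binary at 120 hpf.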
# [2] = Tanguay_ZF_120hpf_PIG_legacy: (Legacy) Oregon State University Tanguay Lab 120 Hour Post-fertilization zebrafish Assay for Pigmentation Malformation (AID 2283650)
# Summary of the method: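 Pigment malformation recorded as a binary call at 120 hpf in zebrafish (Tropical 5D) exposed singly from 6 hpf after pronase dechorionation. Static, sealed, 28C exposure, 0.64% DMSO; mortality excludes scoring; positive-direction fit against DMSO.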
# [3] = Tanguay_ZF_120hpf_SWIM_legacy: (Legacy) Oregon State University Tanguay Lab 120 Hour Post-fertilization zebrafish Assay for Swim Bladder Malformation (AID 2283654);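 also: swim bladder malformation in each larva scored yes or no under brightfield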
# Summary of the method: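 Scoring is binary for swim bladder defects at 120 hpf, by brightfield inspection of zebrafish larvae. Embryos were exposed singly from 6 hpf after pronase dechorionation, at 28C with 0.64% DMSO; mortality excluded scoring.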
# [4] = read-out: xenobiotic metabolism (CYP1A1), CYP1A1 (gene 1543); experiment: CLD_CYP1A1_6hr: CellzDirect (CLD) Gene Expression Assay for xenobiotic metabolism (CYP1A1) at 6 hours (AID 2283661);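 as to AC50: potency for transcript induction above DMSO vehicle baseline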
# Summary of the method: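 Read-out 6 h post-dose: qNPA chemiluminescent quantitation of transcript induction against 0.2% DMSO. Cells were cultured primary human hepatocytes from two separate donor preparations; phase-contrast morphology annotated apparent cytotoxicity.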
# [5] = Tanguay_ZF_120hpf_SNOU_legacy: (Legacy) Oregon State University Tanguay Lab 120 Hour Post-fertilization zebrafish Assay for Snout Malformation (AID 2283637)
# Summary of the method: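 Binary snout-malformation call at 120 hpf in wild-type 5D embryos, chorion removed by pronase, under static exposure from 6 hpf at 28C (0.64% DMSO). Embryos dying by 24 or 120 hpf excluded.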
# [6] = Tanguay_ZF_120hpf_SOMI_legacy: (Legacy) Oregon State University Tanguay Lab 120 Hour Post-fertilization zebrafish Assay for Somite Malformation (AID 2283647)
# Summary of the method: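 5D WT zebrafish; chorion removed 4 hpf; 1 embryo/well from 6 hpf; static exposure to 120 hpf, 28C, 0.64% DMSO final. Endpoint: somite malformation, binary, brightfield. Mortality excluded.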
# [7] = Tanguay_ZF_120hpf_TRUN_legacy: (Legacy) Oregon State University Tanguay Lab 120 Hour Post-fertilization zebrafish Assay for Truncated Body (AID 2283655)
# Summary of the method: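 5D wild-type larvae; pronase dechorionation; static exposure 6→120 hpf, 28C; DMSO 0.64% final; 5uM trimethyltin chloride positive control. Readout: presence/absence of truncated body, analyzed relative to DMSO.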
# [8] = Tanguay_ZF_120hpf_OTIC_legacy: (Legacy) Oregon State University Tanguay Lab 120 Hour Post-fertilization zebrafish Assay for Otic Vesicle Malformation (AID 2283639)
# Summary of the method: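 Binary scoring of otic vesicle defects at 120 hpf in zebrafish (Tropical 5D) held under static exposure at 28C, sealed and shaded, with final DMSO 0.64%. Embryos dying by 24 or 120 hpf excluded; fitted positively against DMSO.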
# [9] = Tanguay_ZF_120hpf_BRAI_legacy: (Legacy) Oregon State University Tanguay Lab 120 Hour Post-fertilization zebrafish Assay for Brain Malformation (AID 2283641)
# Summary of the method: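 Brain malformation in Tropical 5D zebrafish was recorded as a binary endpoint after static compound exposure from early development to 120 hpf at 28C. Activity was analysed against DMSO as negative control.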
# [10] = read-out: Broad substrate specificity ATP-binding cassette transporter ABCG2 (Homo sapiens) (UniProt Q9UNQ0); experiment: CLD_ABCG2_6hr: CellzDirect (CLD) Gene Expression Assay for ABC Transporter (ABCG2) at 6 hours (AID 2283660)
# Summary of the method: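 ABCG2 mRNA induction measured by qNPA chemiluminescence in human primary hepatocyte cultures, 6 h post-dose. Chemicals tested at several concentrations against a 0.2% DMSO vehicle; positive-direction fit relative to DMSO.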
# [11] = Tanguay_ZF_120hpf_PE_legacy: (Legacy) Oregon State University Tanguay Lab 120 Hour Post-fertilization zebrafish Assay for Pericardial Edema (AID 2283640);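 also: potency for increased incidence of pericardial edema versus DMSO baseline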
# Summary of the method: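 Read-out is the presence or absence of pericardial edema at 120 hpf under brightfield, with gain of signal fitted against DMSO controls. Larvae (5D wild-type) were statically exposed at 28C with 0.64% final DMSO.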
# [12] = Tanguay_ZF_120hpf_CFIN_legacy: (Legacy) Oregon State University Tanguay Lab 120 Hour Post-fertilization zebrafish Assay for Caudal Fin Malformation (AID 2283649)
# Summary of the method: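 Embryos were collected from Tropical 5D wild-type adults and dechorionated at 4 hpf. At 6 hpf each was exposed, one per well, at 0.64% DMSO and 28C. At 120 hpf fin morphology was scored; dead embryos were excluded.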
# [13] = Tanguay_ZF_120hpf_NC_legacy: (Legacy) Oregon State University Tanguay Lab 120 Hour Post-fertilization zebrafish Assay for Notochord and Tail Malformation (AID 2283656)
# Summary of the method: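 Binary scoring of notochord distortion by brightfield microscopy; embryos dying were not scored. Wild-type Tropical 5D embryos, chorion removed, exposed singly and statically from 6 to 120 hpf, 28C, sealed, 0.64% DMSO.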
# [14] = Tanguay_ZF_120hpf_CIRC_legacy: (Legacy) Oregon State University Tanguay Lab 120 Hour Post-fertilization zebrafish Assay for Circulatory Malformation (AID 2283651)
# Summary of the method: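 Binary circulatory malformation call at 120 hpf by brightfield imaging of zebrafish larvae; chorion removed at 4 hpf, static exposure from 6 hpf in sealed dark plates at 28C, final DMSO 0.64%; non-mortality endpoints skipped if embryo died.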
# [15] = Tanguay_ZF_120hpf_PFIN_legacy: (Legacy) Oregon State University Tanguay Lab 120 Hour Post-fertilization zebrafish Assay for Pectoral Fin Malformation (AID 2283648);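 also: each larva judged yes or no for fin defect by brightfield with dead larvae skipped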
# Summary of the method: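 Pectoral fin malformation was recorded as a binary endpoint at 120 hpf in wild-type Tropical 5D larvae, which had been dechorionated and exposed statically from 6 hpf at 28C in 0.64% DMSO. Dead embryos were excluded.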
compound,measurement,setting,value
COP(=O)(OC)SCn1c(=O)oc2cc(Cl)cnc21,AC50,[1],active: 15.9 µM
same,outcome,[2],inactive
same,outcome,[3],inactive
same,AC50,[4],inconclusive: 0.4 nM
O=C(O)C(F)(F)C(F)(F)C(F)(F)C(F)(F)C(F)(F)C(F)(F)F,AC50,[5],inconclusive: 202 µM
same,AC50,[6],inconclusive: 108 µM
same,AC50,[7],inconclusive: 3.94 µM
Clc1nc(Cl)nc(Nc2ccccc2Cl)n1,AC50,[5],inconclusive: 1.3 µM
same,AC50,[8],inconclusive: 40.1 µM
same,AC50,[9],inconclusive: 51.8 µM
same,AC50,[3],inconclusive: 39.2 µM
CCOC(=O)C(C)OC(=O)c1cc(Oc2ccc(C(F)(F)F)cc2Cl)ccc1[N+](=O)[O-] (stereo not drawn),AC50,[5],inconclusive: 29.5 µM
same,AC50,[1],inconclusive: 14.8 µM
same,outcome,[8],inactive
same,AC50,[2],inconclusive: 18.6 µM
same,AC50,[10],inconclusive: 20 µM
Brc1ccc(Oc2ccccc2)cc1,AC50,[5],inconclusive: 202 µM
same,AC50,[11],inconclusive: 83.6 µM
CC(C)(C)c1ccc(CSc2cnn(C(C)(C)C)c(=O)c2Cl)cc1,outcome,[1],inactive
same,AC50,[2],inconclusive: 2.98 µM
same,outcome,[10],inactive
same,AC50,[4],inconclusive: 203 nM
COc1cccc(C(=O)NN(C(=O)c2cc(C)cc(C)c2)C(C)(C)C)c1C,outcome,[1],inactive
same,AC50,[12],inconclusive: 81 µM
same,outcome,[2],inactive
same,outcome,[10],inactive
same,outcome,[4],inactive
O=C(O)C(Cl)(Cl)Cl,AC50,[5],inconclusive: 4.17 µM
same,AC50,[11],inconclusive: 40.6 µM
same,AC50,[12],inconclusive: 3.48 µM
same,outcome,[2],inactive
same,AC50,[7],inconclusive: 2.16 µM
same,outcome,[13],inactive
CN/C(=N\[N+](=O)[O-])NCc1cnc(Cl)s1,outcome,[5],inactive
same,outcome,[8],inactive
same,AC50,[2],inconclusive: 202 µM
same,outcome,[3],inactive
C[C@H]1[C@H](c2ccc(Cl)cc2)SC(=O)N1C(=O)NC1CCCCC1,outcome,[1],inactive
same,outcome,[2],inactive
same,AC50,[14],inconclusive: 82.1 µM
COC(=O)NC(=S)Nc1ccccc1NC(=S)NC(=O)OC,outcome,[8],inactive
same,AC50,[9],inconclusive: 0.618 µM
same,AC50,[14],inconclusive: 34.7 µM
same,AC50,[10],inconclusive: 2.06 µM
same,AC50,[4],active: 5110 nM
CO/C=C(/C(=O)OC)c1ccccc1COc1cccc(C(F)(F)F)n1,AC50,[1],active: 2.66 µM
same,AC50,[8],active: 12.7 µM
same,AC50,[9],active: 3.77 µM
same,AC50,[15],active: 5.66 µM
same,AC50,[12],active: 9.15 µM
same,AC50,[2],active: 19.7 µM
same,AC50,[14],active: 9.76 µM
same,AC50,[3],active: 14.5 µM
same,AC50,[7],active: 7.84 µM
CC(C)C(=O)OCC(C)(C)C(OC(=O)C(C)C)C(C)C (stereo not drawn),outcome,[5],inactive
same,AC50,[1],active: 41.6 µM
same,AC50,[15],inconclusive: 2.55 µM
Cc1ccc(N=C=O)cc1N=C=O,outcome,[1],inactive
same,AC50,[2],inconclusive: 74 µM
same,AC50,[3],inconclusive: 1.03 µM
CC1=C2C[C@H]3[C@@H](CC=C4C[C@@H](O)CC[C@@]43C)[C@@H]2CC[C@]12O[C@@H]1C[C@H](C)CN[C@H]1[C@H]2C,AC50,[1],active: 25.9 µM
same,AC50,[15],active: 21.8 µM
same,AC50,[12],active: 16.6 µM
same,AC50,[2],active: 20 µM
same,AC50,[3],inconclusive: 2.55 µM
CC(C)(C)OOC(C)(C)C,AC50,[8],inconclusive: 106 µM
CC(C)(O)c1cnn2c(-c3ccc(F)c(-c4c(F)cccc4C#N)c3)cnc2n1,outcome,[1],inactive
same,AC50,[13],inconclusive: 42.6 µM
CC1(C)CCC(=Cc2ccc(Cl)cc2)C1(O)Cn1cncn1 (stereo not drawn),AC50,[5],inconclusive: 113 µM
same,AC50,[6],inconclusive: 54.2 µM
same,AC50,[2],inconclusive: 28.7 µM
same,AC50,[4],active: 6.93 nM
CC(Cc1ccc(OCC(=O)O)cc1)NCC(O)c1csc(C(F)(F)F)n1 (stereo not drawn),outcome,[8],inactive
same,outcome,[9],inactive
COP(=S)(OC)Oc1ccc([N+](=O)[O-])cc1,outcome,[1],inactive
COc1cc(C=O)cc2c1[C@H](COC(N)=O)[C@]1(OC(C)=O)ON2C[C@H]2[C@@H]1N2C(C)=O,outcome,[8],inactive
CC(C)Oc1cc(-n2nc(C(C)(C)C)oc2=O)c(Cl)cc1Cl,AC50,[1],inconclusive: 0.451 µM
same,AC50,[8],inconclusive: 30.5 µM
same,AC50,[11],inconclusive: 188 µM
same,outcome,[9],inactive
same,AC50,[2],inconclusive: 202 µM
Nc1cc(Cl)cc(C(=O)O)c1Cl,AC50,[8],inconclusive: 0.189 µM
same,AC50,[9],inconclusive: 196 µM
CC(C)OC(=O)Nc1cccc(Cl)c1,AC50,[5],active: 34.2 µM
same,AC50,[9],active: 39.5 µM
same,outcome,[2],inactive
same,AC50,[14],inconclusive: 200 µM
same,outcome,[10],inactive
CC(Oc1ccc(Cl)cc1Cl)C(=O)O (stereo not drawn),AC50,[1],inconclusive: 1.83 µM
same,AC50,[6],inconclusive: 1.26 µM
same,AC50,[7],inconclusive: 9.57 µM
same,outcome,[13],inactive
same,AC50,[10],inconclusive: 20 µM

# Pulled one by one from above, two records:
compound,measurement,setting,value
CC(C)OC(=O)Nc1cccc(Cl)c1,AC50,[9],active: 39.5 µM
CC(Oc1ccc(Cl)cc1Cl)C(=O)O (stereo not drawn),AC50,[7],inconclusive: 9.57 µM
